{"source": "the supplement of paper PMC8728848", "binders": {"B1": {"name": "Protein L(B1-B4) (Finegoldia magna), Q51912 (protein)", "chain": "KEETPETPETDSEEEVTIKANLIFANGSTQTAEFKGTFEKATSEAYAYADTLKKDNGEYTVDVADKGYTLNIKFAGKEKTPEEPKEEVTIKANLIYADGKTQTAEFKGTFEEATAEAYRYADALKKDNGEYTVDVADKGYTLNIKFAGKEKTPEEPKEEVTIKANLIYADGKTQTAEFKGTFEEATAEAYRYADLLAKENGKYTVDVADKGYTLNIKFAGKEKTPEEPKEEVTIKANLIYADGKTQTAEFKGTFAEATAEAYRYADLLAKENGKYTADLEDGGYTINIRFAG"}}, "assay_in_all_cases": "glycan array binding signal (z-score within array); higher = stronger binding", "settings_in_all_cases": "glycan notation: IUPAC condensed, linker removed", "key": {"[1]": {"target": "Gal(b1-4)GlcNAc(b1-2)Man(a1-6)[Man(a1-3)]Man(b1-4)GlcNAc(b1-4)GlcNAc", "outline": "(§1)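 Glycan array data were curated from 3228 arrays in the Consortium for Functional Glycomics database and kept only where the protein sequence was available. Glycan names were converted to IUPAC-condensed notation, and columns mapping to the same glycan were averaged. The binding signal is a within-array Z-score, averaged across arrays of the same protein sequence at different concentrations or buffers and across linkers. Negative Z-scores can be read as non-binding.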"}, "[2]": {"target": "Gal(b1-4)GlcNAc(b1-2)[Gal(b1-4)GlcNAc(b1-4)]Man(a1-3)[Gal(b1-4)GlcNAc(b1-2)Man(a1-6)]Man(b1-4)GlcNAc(b1-4)GlcNAc", "outline": "as §1"}, "[3]": {"target": "Gal(b1-4)GlcNAc(b1-2)[Gal(b1-4)GlcNAc(b1-4)]Man(a1-3)[Gal(b1-4)GlcNAc(b1-2)[Gal(b1-4)GlcNAc(b1-6)]Man(a1-6)]Man(b1-4)GlcNAc(b1-4)GlcNAc", "outline": "as §1"}, "[4]": {"target": "Gal(b1-4)GlcNAc(b1-2)[Gal(b1-4)GlcNAc(b1-4)]Man(a1-3)[GlcNAc(b1-4)][Gal(b1-4)GlcNAc(b1-2)Man(a1-6)]Man(b1-4)GlcNAc(b1-4)GlcNAc", "outline": "as §1"}, "[5]": {"target": "Gal(b1-4)GlcNAc(b1-2)[Gal(b1-4)GlcNAc(b1-4)]Man(a1-3)[GlcNAc(b1-4)][Gal(b1-4)GlcNAc(b1-2)[Gal(b1-4)GlcNAc(b1-6)]Man(a1-6)]Man(b1-4)GlcNAc(b1-4)GlcNAc", "outline": "as §1"}, "[6]": {"target": "Gal(b1-4)GlcNAc(b1-2)[Gal(b1-4)GlcNAc(b1-6)]Man(a1-6)[Gal(b1-4)GlcNAc(b1-2)Man(a1-3)]Man(b1-4)GlcNAc(b1-4)GlcNAc", "outline": "as §1"}, "[7]": {"target": "Gal(b1-4)GlcNAc(b1-2)[Gal(b1-4)GlcNAc(b1-6)]Man(a1-6)[Gal(b1-4)GlcNAc(b1-2)Man(a1-3)]Man(b1-4)GlcNAc(b1-4)[Fuc(a1-6)]GlcNAc", "outline": "as §1"}, "[8]": {"target": "Gal(b1-4)GlcNAc(b1-2)[Gal(b1-4)GlcNAc(b1-6)]Man(a1-6)[GlcNAc(b1-4)][Gal(b1-4)GlcNAc(b1-2)Man(a1-3)]Man(b1-4)GlcNAc(b1-4)GlcNAc", "outline": "as §1"}, "[9]": {"target": "Gal(b1-4)GlcNAc(b1-2)[Gal(b1-4)GlcNAc(b1-6)]Man(a1-6)[GlcNAc(b1-4)][Gal(b1-4)GlcNAc(b1-2)[Gal(b1-4)GlcNAc(b1-4)]Man(a1-3)]Man(b1-4)GlcNAc(b1-4)[Fuc(a1-6)]GlcNAc", "outline": "as §1"}, "[10]": {"target": "Gal(b1-4)GlcNAc(b1-3)Gal(b1-3)GalNAc", "outline": "as §1"}, "[11]": {"target": "Gal(b1-4)GlcNAc(b1-3)Gal(b1-3)GlcNAc", "outline": "as §1"}, "[12]": {"target": "Gal(b1-4)GlcNAc(b1-3)Gal(b1-4)Glc", "outline": "as §1"}, "[13]": {"target": "Gal(b1-4)GlcNAc(b1-3)Gal(b1-4)GlcNAc", "outline": "as §1"}, "[14]": {"target": "Gal(b1-4)GlcNAc(b1-3)Gal(b1-4)GlcNAc(b1-2)Man(a1-3)[Gal(b1-4)GlcNAc(b1-3)Gal(b1-4)GlcNAc(b1-2)Man(a1-6)]Man(b1-4)GlcNAc(b1-4)GlcNAc", "outline": "as §1"}, "[15]": {"target": "Gal(b1-4)GlcNAc(b1-3)Gal(b1-4)GlcNAc(b1-2)Man(a1-3)[Gal(b1-4)GlcNAc(b1-3)Gal(b1-4)GlcNAc(b1-2)Man(a1-6)]Man(b1-4)GlcNAc(b1-4)[Fuc(a1-6)]GlcNAc", "outline": "as §1"}, "[16]": {"target": "Gal(b1-4)GlcNAc(b1-3)Gal(b1-4)GlcNAc(b1-2)[Gal(b1-4)GlcNAc(b1-3)Gal(b1-4)GlcNAc(b1-6)]Man(a1-6)[Gal(b1-4)GlcNAc(b1-3)Gal(b1-4)GlcNAc(b1-2)Man(a1-3)]Man(b1-4)GlcNAc(b1-4)GlcNAc", "outline": "as §1"}, "[17]": {"target": "Gal(b1-4)GlcNAc(b1-3)Gal(b1-4)GlcNAc(b1-2)[Gal(b1-4)GlcNAc(b1-3)Gal(b1-4)GlcNAc(b1-6)]Man(a1-6)[Gal(b1-4)GlcNAc(b1-3)Gal(b1-4)GlcNAc(b1-2)Man(a1-3)]Man(b1-4)GlcNAc(b1-4)[Fuc(a1-6)]GlcNAc", "outline": "as §1"}, "[18]": {"target": "Gal(b1-4)GlcNAc(b1-3)Gal(b1-4)GlcNAc(b1-3)Gal(b1-4)GlcNAc", "outline": "as §1"}, "[19]": {"target": "Gal(b1-4)GlcNAc(b1-3)Gal(b1-4)GlcNAc(b1-3)Gal(b1-4)GlcNAc(b1-2)Man(a1-3)[Gal(b1-4)GlcNAc(b1-3)Gal(b1-4)GlcNAc(b1-3)Gal(b1-4)GlcNAc(b1-2)Man(a1-6)]Man(b1-4)GlcNAc(b1-4)GlcNAc", "outline": "as §1"}, "[20]": {"target": "Gal(b1-4)GlcNAc(b1-3)Gal(b1-4)GlcNAc(b1-3)Gal(b1-4)GlcNAc(b1-2)Man(a1-3)[Gal(b1-4)GlcNAc(b1-3)Gal(b1-4)GlcNAc(b1-3)Gal(b1-4)GlcNAc(b1-2)Man(a1-6)]Man(b1-4)GlcNAc(b1-4)[Fuc(a1-6)]GlcNAc", "outline": "as §1"}, "[21]": {"target": "Gal(b1-4)GlcNAc(b1-3)Gal(b1-4)GlcNAc(b1-3)Gal(b1-4)GlcNAc(b1-2)[Gal(b1-4)GlcNAc(b1-3)Gal(b1-4)GlcNAc(b1-3)Gal(b1-4)GlcNAc(b1-6)]Man(a1-6)[Gal(b1-4)GlcNAc(b1-3)Gal(b1-4)GlcNAc(b1-3)Gal(b1-4)GlcNAc(b1-2)Man(a1-3)]Man(b1-4)GlcNAc(b1-4)[Fuc(a1-6)]GlcNAc", "outline": "as §1"}, "[22]": {"target": "Gal(b1-4)GlcNAc(b1-3)Gal(b1-4)GlcNAc(b1-3)Gal(b1-4)GlcNAc(b1-3)Gal(b1-4)GlcNAc(b1-2)Man(a1-3)[Gal(b1-4)GlcNAc(b1-3)Gal(b1-4)GlcNAc(b1-3)Gal(b1-4)GlcNAc(b1-3)Gal(b1-4)GlcNAc(b1-2)Man(a1-6)]Man(b1-4)GlcNAc(b1-4)GlcNAc", "outline": "as §1"}}, "note": "This is one part of the list."}
{"binder": "B1", "values": [{"measurement": "glycan array binding signal (z-score)", "setting": "[1]", "result": -0.385}, {"measurement": "glycan array binding signal (z-score)", "setting": "[2]", "result": -1.05}, {"measurement": "glycan array binding signal (z-score)", "setting": "[3]", "result": -0.799}, {"measurement": "glycan array binding signal (z-score)", "setting": "[4]", "result": -0.821}, {"measurement": "glycan array binding signal (z-score)", "setting": "[5]", "result": 0.468}, {"measurement": "glycan array binding signal (z-score)", "setting": "[6]", "result": 0.436}, {"measurement": "glycan array binding signal (z-score)", "setting": "[7]", "result": 2.92}, {"measurement": "glycan array binding signal (z-score)", "setting": "[8]", "result": -0.11}, {"measurement": "glycan array binding signal (z-score)", "setting": "[9]", "result": 0.045}, {"measurement": "glycan array binding signal (z-score)", "setting": "[10]", "result": -0.508}, {"measurement": "glycan array binding signal (z-score)", "setting": "[11]", "result": -0.573}, {"measurement": "glycan array binding signal (z-score)", "setting": "[12]", "result": -0.694}, {"measurement": "glycan array binding signal (z-score)", "setting": "[13]", "result": -0.75}, {"measurement": "glycan array binding signal (z-score)", "setting": "[14]", "result": 2.2}, {"measurement": "glycan array binding signal (z-score)", "setting": "[15]", "result": 0.486}, {"measurement": "glycan array binding signal (z-score)", "setting": "[16]", "result": 1.11}, {"measurement": "glycan array binding signal (z-score)", "setting": "[17]", "result": 2.08}, {"measurement": "glycan array binding signal (z-score)", "setting": "[18]", "result": -0.725}, {"measurement": "glycan array binding signal (z-score)", "setting": "[19]", "result": 2.12}, {"measurement": "glycan array binding signal (z-score)", "setting": "[20]", "result": 2.27}, {"measurement": "glycan array binding signal (z-score)", "setting": "[21]", "result": 2.1}, {"measurement": "glycan array binding signal (z-score)", "setting": "[22]", "result": 2.06}]}
